Values joined by “and” are separate entries in the source; they are usually repeats but may differ in a detail not shown here. Identical values can stand only once. The list shows a part of the results. Further columns of the screen follow, without active or inactive calls. For part of these data: The list favours compounds with an active or inconclusive main result. Peptide text beside a SMILES is read from it.
Test: PubChem AID 1586
Conditions: yeast two-hybrid polyglutamine protein interaction, reporter readout; measured here: averaged growth delta OD

Structure (SMILES) | signal change (36 h minus 0 h)
NCCCCC(N)C(=O)NC(Cc1ccc(O)cc1)C(=O)NC(CCCCN)C(=O)O (stereo not drawn) (H-Lys-Tyr-Lys-OH; configuration not given here) | 0.189
C[N+]1(C)CCCC(OC(=O)C(O)(c2ccccc2)c2ccccc2)C1 (configuration not stated) | 0.0791
NCCCCCCNS(=O)(=O)c1cccc2c(Cl)cccc12 | 0.407 and 0.189 and 0.0848
CC(=O)NC1SCCC1=O (configuration not stated) | 0.149
CC(=C(CCOP(=O)(O)O)SC(=O)c1ccccc1)N(C=O)Cc1cnc(C)nc1N | 0.0813
CCOc1ccc(Cc2nccc3cc(OCC)c(OCC)cc23)cc1OCC | 0.198
NC(Cc1ccc(Cl)cc1)C(=O)O (configuration not stated) | 0.164
CCCCOc1cc(C(=O)NCCN(CC)CC)c2ccccc2n1 | 0.163
COc1cc2nc(N3CCN(C(=O)c4ccco4)CC3)nc(N)c2cc1OC | 0.175
Nc1c2c(nc3ccccc13)CCCC2O (configuration not stated) | 0.189
C1CCN2C[C@H]3C[C@H](CN4CCCC[C@@H]34)[C@H]2C1 | 0.197
CCn1cc(C(=O)O)c(=O)c2cc(F)c(N3CCNC(C)C3)c(F)c21 (configuration not stated) | 0.201
CCn1cc(C(=O)O)c(=O)c2cnc(N3CCCC3)nc21 | 0.0988
O=C1C(O)=C(O)C(=O)C(O)=C1O | 0.117
Cc1cc(Nc2ccccc2C(=O)O)ccc1Cl | 0.184
COc1ccc(C2Sc3ccccc3N(CCN(C)C)C(=O)C2OC(C)=O)cc1 (configuration not stated) | 0.0954
CCCc1cc(=O)[nH]c(=S)[nH]1 | 0.0646
CS(=O)(=O)Nc1ccc([N+](=O)[O-])cc1Oc1ccccc1 | 0.0621
Cc1ccc(C(=O)c2ccc(CC(=O)O)n2C)cc1 | 0.19
CC(=O)NCCCCCC(=O)O | 0.128

Structure (SMILES) | signal change (36 h minus 0 h)
N[C@@H]1[C@@H](O)[C@H](O)[C@@H](CO)O[C@H]1O | 0.0361
CN(C)/N=N/c1nc[nH]c1C(N)=O | 0.187
COc1ccc2c(c1OC)C(=O)O[C@H]2[C@@H]1c2ccccc2CCN1C | 0.187
CCN(CCO)CCCC(C)Nc1ccnc2cc(Cl)ccc12 (configuration not stated) | 0.119
Nc1ccc(S(N)(=O)=O)cc1 | 0.192
c1coc(CNc2ncnc3nc[nH]c23)c1 | 0.13
C[C@H]1CC2C([C@@H](O)C[C@@]3(C)C2CC[C@]3(O)C(=O)CO)[C@@]2(C)C=CC(=O)C=C12 (some centres not stated) | 0.109
O=C(O)c1cccnc1 | 0.057
CO/N=C(\C(=O)NC1C(=O)N2C(C(=O)O)=C(CSc3nc(=O)c(O)nn3C)CS[C@H]12)c1csc(N)n1 (some centres not stated) | 0.106
CN(C)CCC(c1ccccc1)c1ccccn1 (configuration not stated) | 0.0722
Clc1ccc2c(c1)C(N1CCNCC1)=Nc1ccccc1O2 | 0.108
CN1CC(=O)N=C1N | 0.152
NC[C@@H]1O[C@H](O[C@@H]2[C@@H](CO)OC(O[C@@H]3[C@@H](O)[C@H](N)C[C@H](N)[C@H]3OC3O[C@H](CO)[C@@H](O)[C@H](O)[C@H]3N)[C@@H]2O)[C@H](N)[C@@H](O)[C@@H]1O (some centres not stated) | 0.116
CN1CCN(CCCN2c3ccccc3Sc3ccc(C(F)(F)F)cc32)CC1 | 0.122
Cn1cnc2c1c(=O)[nH]c(=O)n2C | 0.00285
CC1=C(C(=O)O)N2C(=O)[C@@H](NC(=O)[C@H](N)C3=CCC=CC3)[C@H]2SC1 | 0.122
CCCCC(CC)CN1CN(CC(CC)CCCC)CC(C)(N)C1 (configuration not stated) | 0.145
CCN(CC)CCOC(=O)C1(C2CCCCC2)CCCCC1 | 0.208
NC(=O)NC1NC(=O)NC1=O (configuration not stated) | 0.0912

Test: selective SMN2 exon splicing luciferase activators – cell-based, SMN2/SMN1 luciferase reporters (AID 1598)
Conditions: SMN2 vs SMN1 luciferase splicing reporter cells, at 10 µM; SMN1 luciferase ratio: measured here: SMN1 luciferase reporter average; SMN2 luciferase ratio: measured here: SMN2 luciferase reporter average, stronger effect = higher value

Structure (SMILES) | SMN1 luciferase ratio | SMN2 luciferase ratio
NCCCCC(N)C(=O)NC(Cc1ccc(O)cc1)C(=O)NC(CCCCN)C(=O)O (stereo not drawn) (H-Lys-Tyr-Lys-OH; configuration not given here) | 0.89 | 1.02
C[N+]1(C)CCCC(OC(=O)C(O)(c2ccccc2)c2ccccc2)C1 (configuration not stated) | 0.89 | 0.8
NCCCCCCNS(=O)(=O)c1cccc2c(Cl)cccc12 | 0.91 and 0.82 and 0.83 | 0.95 and 0.87 and 0.94
CC(=O)NC1SCCC1=O (configuration not stated) | 0.89 | 0.87
CC(=C(CCOP(=O)(O)O)SC(=O)c1ccccc1)N(C=O)Cc1cnc(C)nc1N | 0.83 | 0.94
CCOc1ccc(Cc2nccc3cc(OCC)c(OCC)cc23)cc1OCC | 1.24 | 0.88
NC(Cc1ccc(Cl)cc1)C(=O)O (configuration not stated) | 0.97 | 0.91
CCCCOc1cc(C(=O)NCCN(CC)CC)c2ccccc2n1 | 0.86 | 0.77
COc1cc2nc(N3CCN(C(=O)c4ccco4)CC3)nc(N)c2cc1OC | 1.05 | 1.04
Nc1c2c(nc3ccccc13)CCCC2O (configuration not stated) | 0.97 | 1.02
C1CCN2C[C@H]3C[C@H](CN4CCCC[C@@H]34)[C@H]2C1 | 0.93 | 0.84
CCn1cc(C(=O)O)c(=O)c2cc(F)c(N3CCNC(C)C3)c(F)c21 (configuration not stated) | 0.91 | 0.77
CCn1cc(C(=O)O)c(=O)c2cnc(N3CCCC3)nc21 | 0.88 | 0.86
O=C1C(O)=C(O)C(=O)C(O)=C1O | 0.91 | 0.98
Cc1cc(Nc2ccccc2C(=O)O)ccc1Cl | 0.86 | 0.88
COc1ccc(C2Sc3ccccc3N(CCN(C)C)C(=O)C2OC(C)=O)cc1 (configuration not stated) | 0.77 | 0.69
CCCc1cc(=O)[nH]c(=S)[nH]1 | 0.87 | 0.88
CS(=O)(=O)Nc1ccc([N+](=O)[O-])cc1Oc1ccccc1 | 0.91 | 0.9
Cc1ccc(C(=O)c2ccc(CC(=O)O)n2C)cc1 | 0.85 | 0.9
CC(=O)NCCCCCC(=O)O | 0.87 | 0.84

Structure (SMILES) | SMN1 luciferase ratio | SMN2 luciferase ratio
N[C@@H]1[C@@H](O)[C@H](O)[C@@H](CO)O[C@H]1O | 0.94 | 1.11
CN(C)/N=N/c1nc[nH]c1C(N)=O | 1.01 | 0.79
COc1ccc2c(c1OC)C(=O)O[C@H]2[C@@H]1c2ccccc2CCN1C | 0.84 | 0.87
CCN(CCO)CCCC(C)Nc1ccnc2cc(Cl)ccc12 (configuration not stated) | 0.89 | 0.93
Nc1ccc(S(N)(=O)=O)cc1 | 0.93 | 0.84
c1coc(CNc2ncnc3nc[nH]c23)c1 | 0.85 | 0.84
C[C@H]1CC2C([C@@H](O)C[C@@]3(C)C2CC[C@]3(O)C(=O)CO)[C@@]2(C)C=CC(=O)C=C12 (some centres not stated) | 1.02 | 1.02
O=C(O)c1cccnc1 | 1.01 | 0.92
CO/N=C(\C(=O)NC1C(=O)N2C(C(=O)O)=C(CSc3nc(=O)c(O)nn3C)CS[C@H]12)c1csc(N)n1 (some centres not stated) | 1.01 | 0.94
CN(C)CCC(c1ccccc1)c1ccccn1 (configuration not stated) | 0.88 | 0.89
Clc1ccc2c(c1)C(N1CCNCC1)=Nc1ccccc1O2 | 0.75 | 0.68
CN1CC(=O)N=C1N | 0.92 | 0.83
NC[C@@H]1O[C@H](O[C@@H]2[C@@H](CO)OC(O[C@@H]3[C@@H](O)[C@H](N)C[C@H](N)[C@H]3OC3O[C@H](CO)[C@@H](O)[C@H](O)[C@H]3N)[C@@H]2O)[C@H](N)[C@@H](O)[C@@H]1O (some centres not stated) | 0.89 | 0.94
CN1CCN(CCCN2c3ccccc3Sc3ccc(C(F)(F)F)cc32)CC1 | 0.89 | 0.93
Cn1cnc2c1c(=O)[nH]c(=O)n2C | 0.89 | 0.91
CC1=C(C(=O)O)N2C(=O)[C@@H](NC(=O)[C@H](N)C3=CCC=CC3)[C@H]2SC1 | 0.86 | 1.03
CCCCC(CC)CN1CN(CC(CC)CCCC)CC(C)(N)C1 (configuration not stated) | 0.89 | 1.01
CCN(CC)CCOC(=O)C1(C2CCCCC2)CCCCC1 | 0.96 | 0.96
NC(=O)NC1NC(=O)NC1=O (configuration not stated) | 0.92 | 0.9
